From article PMC3047137
Results are given in words; binding and its absence hold for the method and conditions named. In cells and extracts the contact can be indirect.

Protein sequences, listed by entry. Tags and fused reporters are not part of them.
UniProt Q16665: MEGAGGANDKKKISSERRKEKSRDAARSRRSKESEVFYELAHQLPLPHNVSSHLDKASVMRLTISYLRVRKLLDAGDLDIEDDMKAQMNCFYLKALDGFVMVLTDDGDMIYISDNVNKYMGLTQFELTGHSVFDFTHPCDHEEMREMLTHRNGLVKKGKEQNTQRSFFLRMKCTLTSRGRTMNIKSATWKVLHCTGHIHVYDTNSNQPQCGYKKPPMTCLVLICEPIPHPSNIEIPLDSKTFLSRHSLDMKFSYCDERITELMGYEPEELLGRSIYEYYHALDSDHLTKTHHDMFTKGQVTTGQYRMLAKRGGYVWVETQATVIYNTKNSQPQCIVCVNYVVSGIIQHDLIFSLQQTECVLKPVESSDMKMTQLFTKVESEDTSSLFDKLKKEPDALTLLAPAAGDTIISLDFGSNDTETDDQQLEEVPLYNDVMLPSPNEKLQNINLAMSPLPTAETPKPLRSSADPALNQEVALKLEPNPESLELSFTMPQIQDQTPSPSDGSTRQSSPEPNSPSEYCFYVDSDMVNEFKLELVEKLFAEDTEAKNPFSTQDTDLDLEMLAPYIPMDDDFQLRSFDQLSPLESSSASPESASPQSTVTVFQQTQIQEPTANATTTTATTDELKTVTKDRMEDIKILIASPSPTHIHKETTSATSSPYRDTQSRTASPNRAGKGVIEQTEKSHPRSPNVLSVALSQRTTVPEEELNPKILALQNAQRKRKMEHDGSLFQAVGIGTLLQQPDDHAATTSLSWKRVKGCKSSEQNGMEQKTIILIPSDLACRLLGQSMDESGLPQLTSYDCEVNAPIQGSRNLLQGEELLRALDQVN
UniProt Q9QZR5: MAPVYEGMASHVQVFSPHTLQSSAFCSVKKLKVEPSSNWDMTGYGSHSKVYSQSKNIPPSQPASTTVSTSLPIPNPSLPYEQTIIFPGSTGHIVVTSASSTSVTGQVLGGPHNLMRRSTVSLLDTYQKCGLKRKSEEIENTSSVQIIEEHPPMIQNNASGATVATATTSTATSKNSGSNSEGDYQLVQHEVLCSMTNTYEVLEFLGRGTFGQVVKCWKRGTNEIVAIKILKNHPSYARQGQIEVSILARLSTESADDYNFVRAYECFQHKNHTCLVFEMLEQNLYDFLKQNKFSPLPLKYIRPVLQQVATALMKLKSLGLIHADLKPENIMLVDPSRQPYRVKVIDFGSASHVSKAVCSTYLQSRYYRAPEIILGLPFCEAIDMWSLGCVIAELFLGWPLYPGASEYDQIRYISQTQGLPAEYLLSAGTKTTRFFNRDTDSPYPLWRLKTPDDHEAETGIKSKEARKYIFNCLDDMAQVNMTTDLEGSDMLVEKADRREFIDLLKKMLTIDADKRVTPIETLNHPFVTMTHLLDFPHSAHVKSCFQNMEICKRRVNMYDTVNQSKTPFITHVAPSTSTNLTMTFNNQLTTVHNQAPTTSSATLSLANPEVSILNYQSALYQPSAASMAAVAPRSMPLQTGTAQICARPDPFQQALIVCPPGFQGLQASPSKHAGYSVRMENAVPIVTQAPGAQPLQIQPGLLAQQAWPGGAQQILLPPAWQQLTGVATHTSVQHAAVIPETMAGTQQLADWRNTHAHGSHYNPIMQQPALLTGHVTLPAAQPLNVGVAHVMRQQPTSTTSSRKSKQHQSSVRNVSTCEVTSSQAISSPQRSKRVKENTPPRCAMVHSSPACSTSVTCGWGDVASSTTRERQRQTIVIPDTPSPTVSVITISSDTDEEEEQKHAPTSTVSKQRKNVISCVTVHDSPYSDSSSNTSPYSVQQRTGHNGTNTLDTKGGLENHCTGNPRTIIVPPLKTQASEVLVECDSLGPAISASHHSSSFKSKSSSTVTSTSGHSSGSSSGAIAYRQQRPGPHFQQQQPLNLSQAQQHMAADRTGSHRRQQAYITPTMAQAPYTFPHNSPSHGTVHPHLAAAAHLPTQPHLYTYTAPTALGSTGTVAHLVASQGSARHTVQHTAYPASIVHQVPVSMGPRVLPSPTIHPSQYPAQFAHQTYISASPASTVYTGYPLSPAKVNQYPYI

Target: HIF-1α-Flag (Flag-tagged hypoxia-inducible factor 1 alpha subunit) (UniProt Q16665)
Experiment: co-IP; 293 cells co-transfected with 4 μg HIPK2-GFP and 8 μg HIF-1α-Flag for 24 h; total cell extracts (20 mmol/L Hepes, 100 mmol/L NaCl, 5 mM EDTA pH 8.0, 10% glycerol) immunoprecipitated with anti-Flag antibody on protein G-Agarose, 2 h at 4 °C; immunoblot with anti-GFP

binding: no binding
Substance: HIPK2-GFP (homeodomain-interacting protein kinase-2, GFP-tagged) (from UniProt Q9QZR5 1-1196)
